# Measured values: PubChem BioAssay AID624297 (National Center for Advancing Translational Sciences (NCATS), 2012)
# Out of some 340,000 compounds screened, about 6,200 (1.8%) were called active. Inconclusive results, whose numbers are uncertain, are shown with a selection of clear calls. The call rests on the fitted dose curve; in most records, active means well fitted activation curve with a large enough effect; inconclusive means small, poorly fitted or top-dose-only effect; inactive means no such curve, though single readings can be large or run the other way. Potencies beside an inconclusive call are fits to weak or partial responses and may not hold up.
# Assay: A quantitative high throughput screen for small molecules that induce DNA re-replication in SW480 colon adenocarcinoma cells. Further: nearly all actives have a fitted effect of over 55% in size. On re-replication activation: % of control where 0% means no effect.
# Settings: Hoechst DNA content imaging, 48 h; re-replication activation: at 46.1 µM (top of the series) unless noted
# Summary of the method: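 Image-based read-out: total Hoechst fluorescence of nuclei (405 nm excitation, 500-530 nm emission), with hits raising the fraction of high-intensity nuclei. SW480 colon cells incubated 48 hr with compounds at 37 C.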
# Potency means the concentration at half of the fitted maximal effect.
Structure (SMILES),Potency,re-replication activation
O=C(O)CCCC(=O)N1CCN(c2cccc(Cl)c2)CC1,inactive,–
Cc1ccc(-c2noc(CCC(=O)NCCCN3CCN(c4ccc(F)cc4)CC3)n2)cc1,"inconclusive: 32.6 µM [activator, partial curve, poor fit]",–
Cc1ccc(S(=O)(=O)NC(C)(C)CSc2nnc(Nc3ccccc3)s2)cc1,inactive,–
COc1ccc(/C=N/NC(=O)C(C)n2cnc3ccccc3c2=O)cc1 (stereo not drawn),inactive,–
COc1ccc(C(C)NC(=O)c2ccccc2Br)cc1OC (stereo not drawn),"inconclusive: 1.3 µM [activator, full curve, poor fit]",–
CCOC(=O)C1(CCOc2ccccc2)CCN(Cc2ccc(OCCO)cc2)CC1,"inconclusive: 29.1 µM [activator, single point]",–
CCOC(=O)c1nnc(-c2ccccc2)nc1N1CC(C)OC(C)C1 (stereo not drawn),"inconclusive: 20.6 µM [activator, partial curve, poor fit]",–
O=C(CN1CCN(c2ccccc2)CC1)Nc1ccccc1Cl,"inconclusive: 20.6 µM [activator, single point]",–
CC(=O)CC1OC(=O)C(Br)=C1NCc1ccccc1 (stereo not drawn),"inconclusive: 29.1 µM [activator, single point]",–
COc1cc(NC(=O)c2cccc(F)c2)ccc1NC(=O)c1cc2ccccc2o1,"inconclusive: 16.4 µM [activator, partial curve]",–
COC(=O)c1ccc2c(c1)N(Cc1nc(-c3ccc(Cl)cc3)oc1C)C(=O)C1CCCN21 (stereo not drawn),"inconclusive: 18.4 µM [activator, single point]",–
O=C(COC(=O)c1cncc(Br)c1)NCc1cccs1,inactive,–
CCCCNc1c(-c2ccc(SC3CCCCC3)c(OC)c2)nc2ccc(C)cn12,"inconclusive: 29.1 µM [activator, single point]",–
Cc1cccc(C(=O)NCC(=O)OC(C)C(=O)Nc2ccc(Cl)cn2)c1 (stereo not drawn),"inconclusive: 0.103 µM [activator, full curve, poor fit]",–
CC(C(=O)NC(C)(C)C)N(C(=O)CS(=O)CC(=O)Nc1ccc(F)cc1)c1ccccc1F (stereo not drawn),inactive,–
COc1ccc(NC(=O)CN2C(=O)c3ccccc3Sc3ccc(C(=O)N4CCOCC4)cc32)c(OC)c1,inactive,–
CC1CCc2nc(NC(=O)C3CCCO3)sc2C1 (stereo not drawn),inactive,–
O=C(Nc1ccc(Cl)c(Cl)c1)Nc1nnc(CSc2ccccc2)s1,"inconclusive: 29.1 µM [activator, single point]",–
O=C(CSCc1nc2ccccc2[nH]1)Nc1ccc2ccccc2c1,inactive,–
OCC#Cc1ncc(C(F)(F)F)cc1Cl,"inconclusive: 20.6 µM [activator, single point]",–
C#CCOc1ccc(C2C(C#N)=C(N)Oc3cc(O)ccc32)cc1 (stereo not drawn),inactive,–
COC(=O)c1ccc(C23CC4(C2)[C@H](CN(Cc2cccnc2)[C@@H]4c2ccccc2)C3c2ccccc2)cc1 (stereo partly drawn),"inconclusive: 11.6 µM [activator, partial curve, poor fit]",–
Cc1ccc(S(=O)(=O)Oc2cccc(N3C(=O)C4CC=CCC4C3=O)c2)cc1 (stereo not drawn),"inconclusive: 4.11 µM [activator, single point]",–

Structure (SMILES),Potency,re-replication activation
COC(=O)CC1C(=O)NCCN1C(=S)Nc1ccc(F)cc1 (stereo not drawn),inactive,–
COc1ccc(NC(=O)CN2CCCC2c2cccs2)cc1S(=O)(=O)N1CCCCC1 (stereo not drawn),inactive,–
CCOc1ccccc1Nc1nc(-c2cccnc2)cs1,inactive,–
COCc1ccc(CN2CCC(n3nccc3NC(=O)C(OC)c3ccccc3)CC2)o1 (stereo not drawn),"inconclusive: 32.6 µM [activator, partial curve, poor fit]",–
CC1CCN(CCCNC(=O)c2ccc3c(Cl)c4c(nc3c2)CCCC4)CC1,"inconclusive: 20.6 µM [activator, single point]",–
CCOC(=O)c1oc2ccccc2c1NC(=O)CN1CCOCC1,"inconclusive: 0.164 µM [activator, full curve, poor fit]",–
COC(=O)c1c(NC(=O)c2ccc(N(C)S(=O)(=O)c3ccc(C)cc3)cc2)sc2c1CCCC2,"inconclusive: 29.1 µM [activator, single point]",–
CCc1cc(C(=O)N2CCCC(C(=O)c3ccc(Oc4ccccc4)cc3)C2)n(C)n1 (stereo not drawn),"inconclusive: 2.51 µM [activator, single point]",–
CC[C@@]12CCCN3CCc4c(n(c5ccccc45)C(=O)C1)[C@H]32,active: 11.4 µM,–
CNC(=O)N(O)C1N(NC(=O)Nc2ccccc2)C(=S)SC1(C)C (stereo not drawn),"inconclusive: 20.6 µM [activator, single point]",–
COc1ccccc1NC(=O)N(Cc1ccco1)Cc1cc2ccc(C)c(C)c2[nH]c1=O,active: 18.4 µM,–
COc1ccc(/C=N/NC(=O)c2ccc(N(C)S(=O)(=O)c3ccccc3)cc2)cc1,"inconclusive: 0.291 µM [activator, partial curve, poor fit]",–
COc1ccc(OC)c(C2C3=C(N=c4s/c(=C\c5cccc(O)c5)c(=O)n42)c2ccccc2CC3)c1 (stereo not drawn),"inconclusive: 22.4 µM [activator, single point]",–
CCC1CCCCN1C(=O)c1cc(COc2ccc3ncccc3c2)on1 (stereo not drawn),inactive,–
CCN(C(=O)COC(=O)/C=C/c1cccc(Br)c1)C1CCS(=O)(=O)C1 (stereo not drawn),"inconclusive: 20.6 µM [activator, single point]",–
CCCN1CCC(=O)N([C@H](CSc2ccc(OC)cc2)c2ccccc2)CC1,"inconclusive: 23.1 µM [activator, single point]",–
CCOC(=O)c1c(NC(=O)c2ccccc2)sc2c1CCc1ccccc1-2,"inconclusive: 0.461 µM [activator, full curve, poor fit]",–
O=C(COC(=O)c1cccc(N2C(=O)C3CC=CCC3C2=O)c1)c1ccccc1 (stereo not drawn),–,inconclusive: 20.7% [activator]
COc1c(Br)cc([N+](=O)[O-])c(OC)c1C(=O)NC(=O)Nc1c(Cl)cccc1Cl,"inconclusive: 32.6 µM [activator, partial curve, poor fit]",–
CCn1c(SCC(=O)N2CCN(c3cccc(Cl)c3)CC2)nc2ccccc2c1=O,inactive,–
O=C(CN1C(=O)c2ccccc2S1(=O)=O)c1ccccc1F,inactive,–
O=C1N[C@H]2CC=C[C@H]2Nc2ccccc21,"inconclusive: 20.6 µM [activator, partial curve, poor fit]",–
COc1ccc(NC(=O)NNS(=O)(=O)c2ccc(Br)cc2)cc1,"inconclusive: 16.4 µM [activator, single point]",–

# Full records, looked up by structure. Order of values: Potency | re-replication activation
# CC[C@@]12CCCN3CCc4c(n(c5ccccc45)C(=O)C1)[C@H]32 is listed as active: 11.4 µM | –
# Cc1cccc(C(=O)NCC(=O)OC(C)C(=O)Nc2ccc(Cl)cn2)c1 (stereo not drawn) is listed as inconclusive: 0.103 µM [activator, full curve, poor fit] | –
# O=C(COC(=O)c1cccc(N2C(=O)C3CC=CCC3C2=O)c1)c1ccccc1 (stereo not drawn) is listed as – | inconclusive: 20.7% [activator]
# CC(=O)CC1OC(=O)C(Br)=C1NCc1ccccc1 (stereo not drawn) is listed as inconclusive: 29.1 µM [activator, single point] | –

# (list continues)

Structure (SMILES),Potency,re-replication activation
CC(C)=CCCC(C)CN1CCC(n2nccc2NC(=O)c2ccc3c(c2)OCO3)CC1 (stereo not drawn),"inconclusive: 29.1 µM [activator, single point]",–
O=C(Nc1ccnn1C1CCN(C(=O)c2ccc(C(F)(F)F)cc2)CC1)C1CC1,"inconclusive: 29.1 µM [activator, single point]",–
Cc1ccc(CNC(=O)C(N=C2NS(=O)(=O)c3ccccc32)C(C)C)cc1 (stereo not drawn),inactive,–
COc1cc2ccccc2cc1C(=O)O,inactive,–
FC(F)(F)c1cc(-c2ccc(Cl)cc2)nc(NCc2cccnc2)n1,"inconclusive: 29.1 µM [activator, single point]",–
O=C(O)C1CCN(C(=O)CSc2nc3ccccc3c(=O)n2-c2ccc(Cl)cc2)CC1,"inconclusive: 29.1 µM [activator, single point]",–
CCCCSCCCNC(=O)c1cn(C)c2ccc(S(=O)(=O)N3CCCC3)cc2c1=O,"inconclusive: 2.59 µM [activator, single point]",–
CC(=O)Nc1ccc2[nH]c(C)cc(=O)c2c1,inactive,–
CCN(CCCn1c(=S)[nH]c2ccc(N3CCOCC3)cc2c1=O)c1ccccc1,"inconclusive: 29.1 µM [activator, single point]",–
COc1ccc(Cc2ccc(OC)c(N)c2)cc1N,"inconclusive: 29.1 µM [activator, single point]",–
Cc1cc(C(F)(F)F)n2nc(C)c(-c3ccc(Cl)cc3)c2n1,inactive,–
COC(=O)c1ccc(-n2c(C)ccc2-c2ccccc2)cc1,"inconclusive: 25.9 µM [activator, single point]",–
COc1ccc(CNn2c(-c3cccs3)nc3ccccc3c2=O)cc1OC,"inconclusive: 32.6 µM [activator, partial curve, poor fit]",–
Cc1c(Cl)cccc1NC(=O)CCCn1cnc([N+](=O)[O-])n1,"inconclusive: 0.517 µM [activator, partial curve, poor fit]",–
COc1cc([N+](=O)[O-])ccc1NC(=O)COC(=O)c1c[nH]c(=O)[nH]c1=O,inactive,–
Cc1nc(-c2ccc(F)cc2)c(CC(=O)N2CCN(S(=O)(=O)c3ccccc3Br)CC2)s1,inactive,–
CCC(/C=C1\Sc2ccc(OC)cc2N1CCO)=C\c1sc2ccc(OC)cc2[n+]1CCO,inactive,–
COc1ccc(/C=N/Nc2cc(C)nc(N3CCOCC3)n2)cc1,"inconclusive: 20.6 µM [activator, single point]",–
COc1cc(-c2nc(C(=O)NC3CCN(Cc4ccccc4)CC3)cc3c2[nH]c2ccccc23)cc(OC)c1OC,"inconclusive: 0.103 µM [activator, full curve, poor fit]",–
Cn1ncc2c(Nc3cccc(Cl)c3)nc(Nc3cccc(Cl)c3)nc21,"inconclusive: 18.4 µM [activator, single point]",–
CCc1ccccc1NC(=O)Cn1nnc(C(=O)NCc2cccs2)c1N,active: 3.26 µM,–
Cc1ccccc1-n1ncc2c(SCC(=O)N3c4ccccc4CC3C)ncnc21 (stereo not drawn),"inconclusive: 14.6 µM [activator, single point]",–
